Results published in US20130302250A1 (published 2013).
These are yes or no findings as the source states them, for the method shown. Some binding calls cover weakened binding; strength is not graded here.

Amino acid sequences for entries named in this document (tags omitted). Residues count along the entry.
UniProt P07724, residues 25-608: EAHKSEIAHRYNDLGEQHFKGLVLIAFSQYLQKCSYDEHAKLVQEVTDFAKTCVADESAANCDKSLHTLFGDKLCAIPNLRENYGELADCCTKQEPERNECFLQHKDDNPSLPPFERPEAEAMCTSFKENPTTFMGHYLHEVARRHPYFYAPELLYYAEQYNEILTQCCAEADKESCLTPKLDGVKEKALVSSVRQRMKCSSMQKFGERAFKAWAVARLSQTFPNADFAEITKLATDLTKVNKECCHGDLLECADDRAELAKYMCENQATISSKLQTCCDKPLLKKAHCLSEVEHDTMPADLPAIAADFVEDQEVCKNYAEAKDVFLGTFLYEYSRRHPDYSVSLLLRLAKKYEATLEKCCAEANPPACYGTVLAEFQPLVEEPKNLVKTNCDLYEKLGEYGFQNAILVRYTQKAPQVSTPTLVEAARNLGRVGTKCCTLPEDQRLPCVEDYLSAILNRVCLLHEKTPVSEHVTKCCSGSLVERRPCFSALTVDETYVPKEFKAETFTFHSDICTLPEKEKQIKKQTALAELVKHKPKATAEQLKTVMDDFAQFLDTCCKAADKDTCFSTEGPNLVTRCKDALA
UniProt P02770, residues 25-608: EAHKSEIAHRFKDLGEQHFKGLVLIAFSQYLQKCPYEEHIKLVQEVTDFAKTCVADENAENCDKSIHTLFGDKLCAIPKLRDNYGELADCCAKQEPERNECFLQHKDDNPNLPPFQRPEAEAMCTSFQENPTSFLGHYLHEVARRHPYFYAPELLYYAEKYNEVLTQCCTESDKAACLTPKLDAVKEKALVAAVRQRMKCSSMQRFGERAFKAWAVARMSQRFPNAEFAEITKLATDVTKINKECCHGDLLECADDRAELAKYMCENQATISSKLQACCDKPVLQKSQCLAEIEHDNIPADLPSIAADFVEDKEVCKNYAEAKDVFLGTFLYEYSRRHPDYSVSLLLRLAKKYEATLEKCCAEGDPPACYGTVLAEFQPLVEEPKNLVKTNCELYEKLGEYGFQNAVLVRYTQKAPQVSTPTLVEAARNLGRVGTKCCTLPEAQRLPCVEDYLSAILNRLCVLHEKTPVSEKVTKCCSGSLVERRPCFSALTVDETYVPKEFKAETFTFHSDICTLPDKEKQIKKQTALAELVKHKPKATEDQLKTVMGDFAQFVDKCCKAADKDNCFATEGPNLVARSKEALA
UniProt P02768, residues 25-609: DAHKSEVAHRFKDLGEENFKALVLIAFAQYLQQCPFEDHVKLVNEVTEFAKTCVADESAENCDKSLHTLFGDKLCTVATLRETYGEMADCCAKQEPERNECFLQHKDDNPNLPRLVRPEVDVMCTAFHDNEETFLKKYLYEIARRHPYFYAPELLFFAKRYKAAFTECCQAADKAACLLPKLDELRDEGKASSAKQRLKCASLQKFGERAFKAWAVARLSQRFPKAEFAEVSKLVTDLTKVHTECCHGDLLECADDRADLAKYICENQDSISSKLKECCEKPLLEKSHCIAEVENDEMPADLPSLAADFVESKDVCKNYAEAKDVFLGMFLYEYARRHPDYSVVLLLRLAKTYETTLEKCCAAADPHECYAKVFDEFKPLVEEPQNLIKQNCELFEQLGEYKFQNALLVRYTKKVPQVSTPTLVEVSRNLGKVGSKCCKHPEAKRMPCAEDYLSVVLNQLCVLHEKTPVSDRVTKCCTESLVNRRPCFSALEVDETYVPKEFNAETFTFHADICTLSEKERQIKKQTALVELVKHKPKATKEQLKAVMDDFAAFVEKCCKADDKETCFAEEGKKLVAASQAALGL

What was measured:
mouse serum albumin [1] = molecular target: T1, mouse serum albumin (mouse, UniProt P07724 25-608); experiment: SPR (BIAcore), pH 7.4 and pH 6.0
T1 construct: also called MSA; mouse albumin

rat serum albumin [2] = molecular target: T2, rat serum albumin (rat, UniProt P02770 25-608); experiment: SPR (BIAcore), pH 7.4 and pH 6.0
T2 construct: also called RSA; rat albumin

human serum albumin [3] = molecular target: T3, human serum albumin (human, UniProt P02768 25-609); experiment: SPR (BIAcore), pH 7.4 and pH 6.0
T3 construct: also called HSA; HAS

mouse serum albumin [4] = molecular target: T1, mouse serum albumin; experiment: SPR (BIAcore), monomeric 6xHis-tagged VNAR
rat serum albumin [5] = molecular target: T2, rat serum albumin; experiment: SPR (BIAcore), monomeric 6xHis-tagged VNAR
human serum albumin [6] = molecular target: T3, human serum albumin; experiment: SPR (BIAcore), monomeric 6xHis-tagged VNAR

binding (mouse serum albumin [1])	binding (rat serum albumin [2])	binding (human serum albumin [3])	binding (mouse serum albumin [4])	binding (rat serum albumin [5])	binding (human serum albumin [6])	Binder
binds	binds	binds	binds	binds	binds	huE06 v1.1 (VNAR, Humanized VNAR; also called humanized E06 variant 1.1) VNAR: TRVDQSPSSLSASVGDRVTITCVLTDTSYPLYSTYWYQQKPGSSNKEQISISGRYSESVNKGTKSFTLTISSLQPEDFATYYCRAMGTNIWTGDGAGTKVEIKH
binds	binds	binds	binds	binds	binds	huE06 v1.10 (VNAR, Humanized VNAR; also called hE06v1.10) VNAR: TRVDQSPSSLSASVGDRVTITCVLTDTSYPLYSTYWYRKNPGSSNKEQISISGRYSESVNKGTKSFTLTISSLQPEDFATYYCRAMGTNIWTGDGAGTKVEIKH
